Source: publication PMC3973493
No constants are given. Whether binding was seen depends on the method and setting. Binding seen in cells or lysates may run through a third protein. Some binding calls cover weakened binding; strength is not graded here. Where a sequence is shown, tags or fusion partners need not be part of it.

Amino acid sequences for entries named in this document (tags omitted).
UniProt Q39026: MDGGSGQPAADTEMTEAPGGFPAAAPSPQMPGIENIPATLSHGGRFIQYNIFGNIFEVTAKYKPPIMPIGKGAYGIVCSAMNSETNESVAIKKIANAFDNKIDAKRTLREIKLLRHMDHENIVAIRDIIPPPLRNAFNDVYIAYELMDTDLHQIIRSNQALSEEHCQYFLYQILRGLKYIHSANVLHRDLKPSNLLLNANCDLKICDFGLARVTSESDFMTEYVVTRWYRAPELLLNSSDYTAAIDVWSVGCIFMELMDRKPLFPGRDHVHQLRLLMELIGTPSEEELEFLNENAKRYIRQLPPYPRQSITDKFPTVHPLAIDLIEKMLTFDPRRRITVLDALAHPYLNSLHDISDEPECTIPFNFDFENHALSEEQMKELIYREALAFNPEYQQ

T1: AZI1 PRD-8CM (residues 25-end), intein-chitin-binding-protein fusion (Arabidopsis thaliana) (UniProt Q9SU35)
T1 sequence: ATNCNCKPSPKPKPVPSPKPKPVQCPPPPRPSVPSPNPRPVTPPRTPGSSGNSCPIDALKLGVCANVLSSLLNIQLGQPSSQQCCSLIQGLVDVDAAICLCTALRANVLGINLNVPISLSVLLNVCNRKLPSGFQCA

T2: AZI1 proline-rich domain (PRD, residues 25-72), intein-chitin-binding-protein fusion (Arabidopsis thaliana) (UniProt Q9SU35)
T2 sequence: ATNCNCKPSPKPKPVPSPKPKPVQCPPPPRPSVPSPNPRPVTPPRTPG

T3: MKK4-cYFP (Arabidopsis) (UniProt O80397)
T3 sequence: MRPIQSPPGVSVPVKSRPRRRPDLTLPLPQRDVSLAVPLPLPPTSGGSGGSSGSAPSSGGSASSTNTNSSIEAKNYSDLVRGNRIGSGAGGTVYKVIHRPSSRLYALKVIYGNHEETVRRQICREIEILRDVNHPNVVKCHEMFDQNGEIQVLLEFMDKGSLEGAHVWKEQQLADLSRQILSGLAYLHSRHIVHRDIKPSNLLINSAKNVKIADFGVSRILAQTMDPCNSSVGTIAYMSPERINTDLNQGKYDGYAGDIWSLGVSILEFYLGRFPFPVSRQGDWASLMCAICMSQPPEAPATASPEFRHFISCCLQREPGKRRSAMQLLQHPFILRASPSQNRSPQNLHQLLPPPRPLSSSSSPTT


Experiments:
[1] = target: T1, AZI1 PRD-8CM (residues 25-end), intein-chitin-binding-protein fusion (Arabidopsis thaliana); experiment: pull-down; AZI1 peptides immobilized on chitin agarose by the intein-chitin-binding-protein tag, incubated with lysates of E. coli expressing GST-MPK3 or GST-MPK6; captured proteins seen by Coomassie staining and anti-GST immunoblot; only the target purified
[2] = target: T2, AZI1 proline-rich domain (PRD, residues 25-72), intein-chitin-binding-protein fusion (Arabidopsis thaliana); experiment: as above
[3] = target: T3, MKK4-cYFP (Arabidopsis); experiment: split reporter; BiFC in Arabidopsis mesophyll protoplasts, transient expression; repeated several times

binding [1] | binding [2] | binding [3] | Molecule
binds | binds |  | GST-MPK6 (from UniProt Q39026 1-395) (enzyme)
binds | binds |  | GST-MPK3 (enzyme, UniProt Q39023 1-370) MNTGGGQYTDFPAVETHGGQFISYDIFGSLFEITSKYRPPIIPIGRGAYGIVCSVLDTETNELVAMKKIANAFDNHMDAKRTLREIKLLRHLDHENIIAIRDVVPPPLRRQFSDVYISTELMDTDLHQIIRSNQSLSEEHCQYFLYQLLRGLKYIHSANIIHRDLKPSNLLLNANCDLKICDFGLARPTSENDFMTEYVVTRWYRAPELLLNSSDYTAAIDVWSVGCIFMELMNRKPLFPGKDHVHQMRLLTELLGTPTESDLGFTHNEDAKRYIRQLPNFPRQPLAKLFSHVNPMAIDLVDRMLTFDPNRRITVEQALNHQYLAKLHDPNDEPICQKPFSFEFEQQPLDEEQIKEMIYQEAIALNPTYG
 |  | binds | MPK3-nYFP (enzyme, UniProt Q39023 1-370) MNTGGGQYTDFPAVETHGGQFISYDIFGSLFEITSKYRPPIIPIGRGAYGIVCSVLDTETNELVAMKKIANAFDNHMDAKRTLREIKLLRHLDHENIIAIRDVVPPPLRRQFSDVYISTELMDTDLHQIIRSNQSLSEEHCQYFLYQLLRGLKYIHSANIIHRDLKPSNLLLNANCDLKICDFGLARPTSENDFMTEYVVTRWYRAPELLLNSSDYTAAIDVWSVGCIFMELMNRKPLFPGKDHVHQMRLLTELLGTPTESDLGFTHNEDAKRYIRQLPNFPRQPLAKLFSHVNPMAIDLVDRMLTFDPNRRITVEQALNHQYLAKLHDPNDEPICQKPFSFEFEQQPLDEEQIKEMIYQEAIALNPTYG
